Assay results from PubChem BioAssay AID2685 (National Center for Advancing Translational Sciences (NCATS), 2010).
The other results are listed elsewhere or left out. These are further read-outs of the screen, such as a control signal, another cell line or another target. No call is given for them. The list favours compounds with an active or inconclusive main result. Words in brackets tell the shape of the fitted curve; partial curves, single points and poor fits give uncertain potencies.

Assay: qHTS Assay for Lipid Storage Modulators in Drosophila S3 Cells;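 on cell number change: cells counted by Cell Tracker Red CMTPX staining in the red channel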
Conditions: BODIPY lipid droplet fluorescence, 18-24 h; for cell number change: measured here: cell count max response, cells fed with added oleic acid
Method in brief: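 Drosophila S3 cells loaded with oleic acid (400 uM, as added) and compounds at several concentrations; lipid droplets imaged by 488-nm laser-scanning cytometry, 500–530 nm intensity and object ratio to cell channel. Percent activity normalized to 20 uM Triacsin C.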

[1] = measured here: lipid fluorescence (Fed channel) AC50, cells fed with added oleic acid
[2] = measured here: cell number channel AC50, cells fed with added oleic acid

SMILES | cell number change [%] | AC50 [1] | AC50 [2]
CCCn1c(N2CCN(C(=O)/C=C/C(=O)O)CC2)nc2ccccc21 | 42.6 | – | –
O=C(Cn1nnc(-c2cccs2)n1)OC1CCCCC1 | -10.4 | 2.06 µM [falling, partial curve] | –
CC(C)N(CC#CCC(O)(c1ccccc1)C1CCCC1)CCO (configuration not stated) | 9.31 | 0.146 µM [falling, full curve, poor fit] | –
CN(Cc1ccccc1)/C(=N/O)c1cccc(Cl)c1 | -16.3 | 3.26 µM [falling, full curve, poor fit] | –
O=C(NCC(=O)N1CCN(S(=O)(=O)c2c(F)cccc2F)CC1)c1ccccc1F | 83.7 | 0.731 µM [falling, single point] | 29.1 µM [rising, single point]
O=C(OC(C(=O)NCc1ccc2c(c1)OCO2)c1ccc(Cl)cc1)c1ccco1 (configuration not stated) | -1.88 | – | –
NNc1ccc2nncn2n1 | -6.72 | – | –
NC(=O)COC(=O)CCCc1nc2ccccc2s1 | -15.9 | 16.4 µM [falling, partial curve] | –
O=C(COC(=O)c1cc(Br)c(Br)s1)NCCC1=CCCCC1 | -26.5 | 20.6 µM [falling, single point] | –
O=C(CNC(=S)N(CCCN1CCOCC1)Cc1cccs1)NC1CCCC1 | – | – | 0.731 µM [rising, single point]
COc1ccc(Cl)cc1N1C(=N)SCC1=O | 21.5 | 0.291 µM [rising, full curve, poor fit] | –
COC(=O)CSc1nc(N)c2c3c(sc2n1)C(c1ccccc1)SC(c1ccccc1)C3 (configuration not stated) | 200 | – | 20.6 µM [rising, single point]
CCn1ccnc1CC1COc2ccccc2O1 (configuration not stated) | 11.9 | 0.259 µM [rising, full curve, poor fit] | –
COc1ccc(C(C(=O)NC(C)(C)C)N(C(=O)Cn2nnc3ccccc32)c2cccc(C(C)=O)c2)cc1O (configuration not stated) | -1.26 | 0.0517 µM [falling, full curve, poor fit] | –
Cc1ccc2cccc(OCC(=O)N3CC(C)CC(C)C3)c2n1 (configuration not stated) | 63.7 | – | 25.9 µM [rising, single point]
O=C(CN1C(=O)S/C(=C\c2ccccc2)C1=O)NNC(=O)c1ccccc1O | -11.6 | 0.146 µM [falling, full curve, poor fit] | –
CCCCN(C)C(=O)Cn1cnc2sc(C)c(S(=O)(=O)N3CCN(c4ccccc4OC)CC3)c2c1=O | -3.42 | – | –
Cc1cccc2cc3c(N)c(C(=O)N4CCCc5ccccc54)sc3nc12 | 12.1 | 25.9 µM [falling, single point] | –
Cc1cc(N)n2nc(-c3ccc(C(C)(C)C)cc3)cc2n1 | – | – | 6.51 µM [rising, single point]
O=c1nc(N2CCOCC2)nc2n1CCO2 | -2.94 | – | 0.184 µM [falling, full curve, poor fit]
CCn1nnc(NC(=O)c2c(OC)cccc2OC)n1 | 11.4 | 0.116 µM [falling, full curve, poor fit] | –

SMILES | cell number change [%] | AC50 [1] | AC50 [2]
C[C@@H](NC(=O)c1nc[nH]c1C(=O)OCc1ccccc1)c1ccccc1 | -46.6 | – | 0.731 µM [falling, partial curve, poor fit]
Cc1cc(C)n(-c2nc(SCC(=O)Nc3nccs3)c3c4c(sc3n2)COC(C)(C)C4)n1 | -20 | 0.13 µM [falling, full curve, poor fit] | –
CC(=O)c1cc2c(cc1NC(=O)Cn1nc(-c3ccc(F)cc3)ccc1=O)OCO2 | 17.8 | 0.58 µM [falling, single point] | –
CCOC(=O)c1n[nH]n(-c2cc(Cl)cc(Cl)c2)c1=O | -5.13 | 1.3 µM [falling, full curve] | 2.06 µM [falling, partial curve, poor fit]
Cc1ccc(N2C(=O)C3NN=C(C(=O)OCc4ccccc4)C3C2=O)cc1 (configuration not stated) | -14.7 | – | 1.16 µM [falling, full curve, poor fit]
N#C/C(=C\c1ccc(C(=O)O)cc1)c1ccccn1 | 19.4 | 29.1 µM [rising, single point] | –
COc1ccccc1N1CCN(C(=O)c2cc3ccccc3[nH]2)CC1 | 1.1 | – | –
COc1ccc(/C=C/C(=O)c2ccc(O)cc2)cc1CN1CCOCC1 | -0.141 | 18.4 µM [falling, single point] | –
Cc1cc(C(=O)O)c(CSCc2cc(C(=O)O)oc2C)o1 | – | 29.1 µM [rising, single point] | –
Cc1csc(CN(C)C(=O)CC2C(=O)NCCN2Cc2ccc(Cl)c(F)c2)n1 (configuration not stated) | – | 6.51 µM [falling, single point] | –
COc1ccc(C(C)=O)cc1CSc1nnc(C)n1-c1ccccc1 | 13.5 | – | –
C/C(=N\NC(=O)C1CC1)c1ccccc1O | – | 0.103 µM [falling, single point] | –
COc1ccccc1-n1ccnc(SCC(=O)NCCc2ccccc2)c1=O | 1.71 | 3.26 µM [rising, single point] | –
O=c1c2ccccc2nnn1Cc1ccccc1Cl | -11.8 | 6.51 µM [falling, single point] | 6.51 µM [falling, single point]
CC(C)(C)n1c(=O)[nH]c2c(c1=O)CCC2 | 8.7 | – | –
COCCn1c(=NC(=O)c2nc3ccccc3s2)sc2cc(S(C)(=O)=O)ccc21 | 26.5 | 0.116 µM [rising, full curve, poor fit] | –
O=C(COC(=O)CC(c1ccccc1)c1ccccc1)Nc1cccc(F)c1 | 46.4 | 3.66 µM [falling, single point] | 13 µM [rising, partial curve]
C/C(=N\NC(=O)C1CCCN(S(=O)(=O)c2ccccc2)C1)c1ccncc1 (configuration not stated) | – | 1.84 µM [rising, partial curve] | 2.31 µM [rising, partial curve]
O=c1c2cc(NC(=S)N3CCC(N4CCCCC4)CC3)ccc2nc2n1CCCCC2 | 16.4 | 29.1 µM [falling, single point] | –
Cc1cc(=O)n2nc(N3CCC(C(=O)NCc4ccc(Cl)cc4)CC3)sc2n1 | 12.5 | 29.1 µM [rising, single point] | –
NC(=O)c1sc(=S)n(-c2ccc(Br)cc2)c1N | – | 5.8 µM [rising, single point] | –

SMILES | cell number change [%] | AC50 [1] | AC50 [2]
COc1ccc(NC(=O)C2c3cc(OC)c(OC)cc3C(=O)N(C)C2c2cccnc2)cc1OC (configuration not stated) | 37.3 | – | 16.4 µM [rising, single point]
NS(=O)(=O)c1ccc(CCNC(=O)COC(=O)CCc2ccccc2)cc1 | -18.1 | – | 0.00731 µM [falling, full curve, poor fit]
Cc1cc(NC(=O)CN2C(=O)C3CC=CCC3C2=O)no1 (configuration not stated) | -1.26 | 0.731 µM [falling, full curve] | –
O=C(O)CCN1/C(=C/C=Nc2ccccc2)Oc2ccccc21 | -10.8 | 0.116 µM [falling, full curve] | –
COC(=O)[C@@H](Cc1ccccc1)NC(=O)NCCc1ccccc1 | -5.63 | 16.4 µM [falling, single point] | 0.731 µM [rising, partial curve]
Cc1cc(Cl)ccc1OCC(=O)Nc1cccc(S(=O)(=O)NC2=NCCCCC2)c1 | – | – | 1.3 µM [rising, partial curve]
CCCCn1c(=O)c(CCC(=O)OCC(=O)NC(=O)NCCOC)nc2ccccc21 | 6.18 | – | –
CCOC(=O)N1CCC(Nc2ccc3nnc(-c4ccccc4)n3n2)CC1 | -33.1 | 14.6 µM [falling, partial curve] | 13 µM [falling, partial curve]
CCN(c1ccccc1)S(=O)(=O)c1ccc(OC)c(NC(=O)c2c(C)noc2C)c1 | – | 0.291 µM [rising, full curve, poor fit] | –
COc1ccc(-n2nc(C(=O)O)nc2-c2ccccc2)cc1 | – | – | 6.51 µM [falling, single point]
O=C(NCc1ccco1)c1nnc(Cc2ccc(Cl)cc2)o1 | 6.9 | – | –
Cc1cccc(OCC(O)CN2CCN(c3ccccn3)CC2)c1C (configuration not stated) | 32.4 | – | 29.1 µM [rising, single point]
CC(=O)Nc1ccc(SCC(=O)OCC(=O)NC(=O)NCCC(C)C)cc1 | – | – | 1.3 µM [rising, full curve]
CCN(CC)S(=O)(=O)c1ccc(NC(=O)COC(=O)CN2C(=O)c3ccccc3C2=O)cc1 | -48 | 16.4 µM [falling, partial curve] | 29.1 µM [falling, single point]
O=C(COc1ccc(C(=O)c2ccccc2)cc1)Nc1cccnc1 | 12.6 | – | –
Cc1cc(C)n(CC(O)COc2cccc(OCC(O)Cn3nc(C)cc3C)c2)n1 (configuration not stated) | -19.6 | 3.66 µM [rising, single point] | –
Cc1cccc(NC(=O)c2ccc(-n3cncn3)c([N+](=O)[O-])c2)c1 | – | 29.1 µM [rising, single point] | –
COc1ccc(S(=O)(=O)NCc2ccc(C(=O)N(C)Cc3ccco3)cc2)cc1 | 34 | 16.4 µM [rising, partial curve] | 5.17 µM [rising, full curve]
N#C/C(=C\c1ccc(-c2ccc(C(=O)O)cc2)o1)c1nc2ccccc2[nH]1 | 9.93 | 0.651 µM [falling, single point] | 1.64 µM [falling, partial curve]
Cc1ccc(C)c(Cn2ncc3ccccc32)c1 | 11.3 | 0.651 µM [rising, single point] | –

Three structures out of the list, sorted by length of the SMILES, low to high.
SMILES | cell number change [%] | AC50 [1] | AC50 [2]
O=C(NCc1ccco1)c1nnc(Cc2ccc(Cl)cc2)o1 | 6.9 | – | –
O=C(CNC(=S)N(CCCN1CCOCC1)Cc1cccs1)NC1CCCC1 | – | – | 0.731 µM [rising, single point]
Cc1cc(=O)n2nc(N3CCC(C(=O)NCc4ccc(Cl)cc4)CC3)sc2n1 | 12.5 | 29.1 µM [rising, single point] | –
